From patent publication US20220042996A1, “COMPOSITIONS AND METHODS RELATED TO LATROPHILINS AS BIOMARKERS FOR HAEMATOPOIETIC CELL CANCER” (priority 2015, published 2022)
“Also recorded” adds a separate entry of the source. For at least one compound, name, drawing or mass did not settle the structure.

Tests used:
U937 human AML cells = test: LPHN1/2 protein levels by Western blot in U937 cells; format: cell-based; conditions: 1 h pre-treatment with 10 μM rapamycin, then 1 μg/ml LPS 4 h
THP-1 human AML cells = test: LPHN1/2 protein levels by Western blot in THP-1 cells; format: cell-based; conditions: 1 h pre-treatment with 10 μM rapamycin, then 1 μg/ml LPS 4 h

CO[C@H]1C[C@@H]2CC[C@@H](C)[C@@](O)(O2)C(=O)C(=O)N2CCCC[C@H]2C(=O)O[C@H]([C@H](C)C[C@@H]2CC[C@@H](O)[C@H](OC)C2)CC(=O)[C@H](C)/C=C(\C)[C@@H](O)[C@@H](OC)C(=O)[C@H](C)C[C@H](C)/C=C/C=C/C=C/1C [rapamycin]
expression of LPHN 1 and LPHN 2 (U937 human AML cells): attenuated; also recorded: nearly abolished | expression of LPHN 1 and LPHN 2 (THP-1 human AML cells): attenuated; also recorded: nearly abolished
